No constants are given. Whether binding was seen depends on the method and setting. A result given as binding can be weak or reduced; the word gives no strength.
Legend:
[1] = molecular target: NRT2.1 ΔC494-530 (truncated NRT2.1 without epitope 20) (Arabidopsis thaliana) (UniProt O82811); experiment: native gel or EMSA
[2] = molecular target: NRT2.1 ΔC514-530 (truncated NRT2.1 with epitope 20) (Arabidopsis thaliana) (UniProt O82811); experiment: native gel or EMSA

Sequences of proteins named here, by UniProt entry; tags and fusion partners are left off. A change or cut given only in a name is not applied to a line headed by its entry.
UniProt O82811: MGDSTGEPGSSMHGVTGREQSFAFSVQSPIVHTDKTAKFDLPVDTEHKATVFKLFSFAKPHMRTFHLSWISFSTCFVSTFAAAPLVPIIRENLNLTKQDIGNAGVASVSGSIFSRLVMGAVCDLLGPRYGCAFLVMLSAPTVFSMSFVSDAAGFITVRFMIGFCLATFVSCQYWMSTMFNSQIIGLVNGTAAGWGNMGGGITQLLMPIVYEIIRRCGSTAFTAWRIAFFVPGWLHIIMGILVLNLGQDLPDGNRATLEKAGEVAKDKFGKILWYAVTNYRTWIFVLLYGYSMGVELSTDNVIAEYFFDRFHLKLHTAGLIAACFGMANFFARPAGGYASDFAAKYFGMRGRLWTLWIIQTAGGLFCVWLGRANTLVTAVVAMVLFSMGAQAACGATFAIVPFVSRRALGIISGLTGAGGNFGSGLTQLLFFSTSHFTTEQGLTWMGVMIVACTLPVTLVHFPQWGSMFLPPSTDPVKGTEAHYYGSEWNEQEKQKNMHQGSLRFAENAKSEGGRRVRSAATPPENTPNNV

binding [1]: binds | binding [2]: binds
B1: NAR2.1 (Arabidopsis thaliana roots) (protein, UniProt Q9FGS5 23-210)
chain: AEKVRLFKELDKGALDVTTKPSREGPGVVLDAGKDTLNITWTLSSIGSKREAEFKIIKVKLCYAPPSQVDRPWRKTHDELFKDKTCPHKIIAKPYDKTLQSTTWTLERDIPTGTYFVRAYAVDAIGHEVAYGQSTDDAKKTNLFSVQAISGRHASLDIASICFSVFSVVALVVFFVNEKRKAKIEQSK

From doi:10.1101/583542 (bioRxiv, 2019)
